PubChem BioAssay AID743454, Peter MacCallum Cancer Centre | 2014

- Screen: 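Search for knock-downs that restore vorinostat killing in resistant colon cancer cells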 (primary screen)
- System: human HCT116-VR colon cancer cells, selected for vorinostat resistance
- Reagent: siRNA pool against human genes, 40 nM siRNA pool
- Timing: vorinostat for 24 h, read-out about 72 h after transfection
- Treatment: vorinostat at 2.5 µM final
- Measured: 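Cell viability by CellTiter-Fluor and caspase 3/7 activity by luminescence, each scaled to mock wells per plate, duplicates averaged, then robust z-scored over all plates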
- Scale: viability robust z-score: higher = more viable cells than screen typical; caspase robust z-score: higher = more caspase 3/7 activity than screen typical
- Call rule: 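a knock-down is a hit when classed RV1 or RV2 for lowered viability, or CA1 or CA2 for caspase activation; those lethal without drug were dropped; hits were retested singly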
The deposit covers about 18,000 reagents; this is a part drawn at random. 450 of all reagents (2.5%) were called active. 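Single biological run; no consistent viability z cut-off exists, so the class columns, not z-scores, define the calls.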 Entries without a mark were called inactive. Reagent sequences are not shown.

After knock-down of BEX4 (brain expressed X-linked 4) [SID135624477], the record shows viability hit class no change; caspase hit class no change; viability robust z-score 0.13; caspase robust z-score -0.01.
LAMA4 (laminin subunit alpha 4) [SID135622183] scored viability hit class no change; caspase hit class no change; viability robust z-score -1.75; caspase robust z-score 1.9.
After knock-down of C1orf35 (chromosome 1 open reading frame 35) [SID135622721], the record shows viability hit class no change; caspase hit class no change; viability robust z-score -0.36; caspase robust z-score -0.99.
After knock-down of TRIM26 (tripartite motif containing 26) [SID152151511], the record shows viability hit class no change; caspase hit class no change; viability robust z-score -0.68; caspase robust z-score 1.08.
OBP2B (odorant binding protein 2B) [SID152151145] gave viability hit class no change; caspase hit class no change; viability robust z-score 0.38; caspase robust z-score 3.33.
With knock-down of TRAF3 (TNF receptor associated factor 3) [SID135620962], the screen gave viability hit class no change; caspase hit class no change; viability robust z-score -1.87; caspase robust z-score -0.55.
For HADHB [SID152150990], the entry reads viability hit class no change; caspase hit class no change; viability robust z-score 0.88; caspase robust z-score -0.44.
SERINC5 (serine incorporator 5) [SID152156279] showed viability hit class no change; caspase hit class no change; viability robust z-score 1.52; caspase robust z-score -0.42.
Silencing of EIF2B1 (eukaryotic translation initiation factor 2B subunit alpha) [SID152154101] resulted in: viability hit class no change; caspase hit class no change; viability robust z-score 0.01; caspase robust z-score -0.08.
AOC3 (amine oxidase copper containing 3) [SID134314773] showed viability hit class no change; caspase hit class no change; viability robust z-score -0.3; caspase robust z-score 2.88.
After knock-down of MMACHC (metabolism of cobalamin associated C) [SID152150944], the record shows viability hit class no change; caspase hit class no change; viability robust z-score 0.64; caspase robust z-score 0.25.
With knock-down of JMJD4 (jumonji domain containing 4) [SID134318410] the results were viability hit class no change; caspase hit class no change; viability robust z-score -0.16; caspase robust z-score -1.01.
Knock-down of EEF1B2 (eukaryotic translation elongation factor 1 beta 2) [SID152147728] gave: viability hit class no change; caspase hit class no change; viability robust z-score 0.96; caspase robust z-score 1.15.
With knock-down of USP49 (ubiquitin specific peptidase 49) [SID134311370] the results were viability hit class no change; caspase hit class no change; viability robust z-score 1.6; caspase robust z-score 3.94.
